In one assay the target is mouse DMC1^Mei11 (mouse) (UniProt Q61880). Nature of the assay: two-hybrid; yeast two-hybrid; mouse wt DMC1 and DMC1^Mei11 as bait and prey; strains grown on SD-Leu/Trp/His/Ade agar plates.
The next assay addresses T1, mouse wt DMC1 (mouse) (UniProt Q61880).
T1 sequence: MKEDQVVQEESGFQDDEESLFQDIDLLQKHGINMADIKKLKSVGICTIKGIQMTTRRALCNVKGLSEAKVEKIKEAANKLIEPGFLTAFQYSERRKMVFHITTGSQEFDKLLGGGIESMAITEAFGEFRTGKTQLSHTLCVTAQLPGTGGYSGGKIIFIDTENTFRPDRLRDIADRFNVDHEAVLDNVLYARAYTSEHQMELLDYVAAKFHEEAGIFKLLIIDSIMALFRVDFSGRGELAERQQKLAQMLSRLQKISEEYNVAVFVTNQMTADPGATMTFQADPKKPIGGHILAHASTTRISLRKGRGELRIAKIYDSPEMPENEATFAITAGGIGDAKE
The description is as above.

No constants are given. Whether binding was seen depends on the method and setting. Some binding calls cover weakened binding; strength is not graded here.

B1: mouse DMC1^Mei11 (protein, UniProt Q61880 1-340)
chain: MKEDQVVQEESGFQDDEESLFQDIDLLQKHGINMADIKKLKSVGICTIKGIQMTTRRALCNVKGLSEAKVEKIKEAANKLIEPGFLTAFQYSERRKMVFHITTGSQEFDKLLGGGIESMAITEAFGEFRTGKTQLSHTLCVTAQLPGTGGYSGGKIIFIDTENTFRPDRLRDIADRFNVDHEAVLDNVLYARAYTSEHQMELLDYVAAKFHEEAGIFKLLIIDSIMALFRVDFSGRGELAERQQKLAQMLSRLQKISEEYNVAVFVTNQMTPDPGATMTFQADPKKPIGGHILAHASTTRISLRKGRGELRIAKIYDSPEMPENEATFAITAGGIGDAKE
B1: the binding entry with mouse DMC1^Mei11 (mouse) and in the assay with mouse wt DMC1 (mouse) was “binds” each time.

B2: mouse wt DMC1 (protein, UniProt Q61880 1-340)
chain: MKEDQVVQEESGFQDDEESLFQDIDLLQKHGINMADIKKLKSVGICTIKGIQMTTRRALCNVKGLSEAKVEKIKEAANKLIEPGFLTAFQYSERRKMVFHITTGSQEFDKLLGGGIESMAITEAFGEFRTGKTQLSHTLCVTAQLPGTGGYSGGKIIFIDTENTFRPDRLRDIADRFNVDHEAVLDNVLYARAYTSEHQMELLDYVAAKFHEEAGIFKLLIIDSIMALFRVDFSGRGELAERQQKLAQMLSRLQKISEEYNVAVFVTNQMTADPGATMTFQADPKKPIGGHILAHASTTRISLRKGRGELRIAKIYDSPEMPENEATFAITAGGIGDAKE
Regarding B2, the binding result with mouse wt DMC1 (mouse) is “binds”.

For the origin of these results see article PMC1847842.
